Data as given in PubChem BioAssay AID1688 (National Center for Advancing Translational Sciences (NCATS), 2009).
Screen size: about 220,000 compounds; about 2,400 (1.1%) were called active. This list was built around the results that the source calls inconclusive (neither active nor inactive); the mix of calls is not that of the screen. Calls follow the shape of the dose curve; as a rule, active = well fitted inhibition curve with a large enough effect; inconclusive = small, poorly fitted or top-dose-only effect, or effect the other way; inactive = no such curve, though single readings can be large or run the other way. A potency beside an inconclusive call is a rough fit, not a confirmed value.

Test: qHTS Multiplex Assay to Identify Dual Action Probes in a Cell Model of Huntington: Aggregate Formation (GFP); also: nearly all actives have a fitted effect of over 60% in size
Settings: PC12 HttQ103-GFP aggregates, Acumen cytometry, 40 h; activity change, negative = inhibition: at 46.1 µM (top of the series) unless noted
How it was run: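 Aggregate formation scored by laser-scanning cytometer (488 excitation, 500–530 emission) in lysed PC12 cells expressing Q103-GFP after 100 nM tebufenozide induction; library tested in dose series, with ATPLite reagent added in the multiplex.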
% is scaled to controls: 0 for no effect and ±100 for the full control effect; potency is read from the fitted curve at half-maximal effect.

SMILES | Potency | activity change, negative = inhibition
Cc1ccnc(Sc2ccc([N+](=O)[O-])cc2[N+](=O)[O-])n1 | inconclusive: 35.5 µM [inhibitor, single point] | 
Cc1cccc(-c2nc(=S)c3c(n2Cc2ccco2)CCCC3)c1 | inconclusive: 5.62 µM [activator, single point] | 
O=C(Nc1nc2ccccc2s1)Nc1ccc([N+](=O)[O-])cc1Cl |  | inactive: -8.52% [at 9.22 µM]
Cc1nc2ccccc2c2oc(C(=O)Nc3ccc(C(C)C)cc3)cc12 | inconclusive: 15.8 µM [inhibitor, single point] | 
N#CC1=C(S)N(c2ccccc2)C(c2ccc(-c3cccc(Cl)c3)o2)NC1=O (stereo not given) | inconclusive: 35.5 µM [activator, single point] | 
COCCOC(=O)C1=C(C)NC(C)=C(C(=O)OC/C=C/c2ccccc2)C1c1cccc([N+](=O)[O-])c1 (stereo not given) | inconclusive: 35.5 µM [inhibitor, single point] | 
CC[n+]1c(C)n(-c2ccccc2)c2ccc(NC(C)=O)cc21 | active: 3.98 µM | 
N=c1ccn(Cc2cccc(Cl)c2)cc1 | inconclusive: 3.55 µM [inhibitor, partial curve] | 
O=C(Nc1ccncc1)c1c(F)cccc1F | active: 12.6 µM | 
S=C(NCc1cccs1)Nc1ccc(Cl)cc1 | inconclusive: 25.1 µM [inhibitor, single point] | 
CN1/C(=C/C(=O)C2CC2)C(C)(C)c2ccccc21 | inconclusive: 35.5 µM [inhibitor, single point] | 
COc1ccc2c(C)c(Cc3ccccc3)c(=O)oc2c1OC | inconclusive: 14.1 µM [inhibitor, single point] | 
CN(C1=C(NC(=O)c2ccccc2)C(=O)c2ccccc2C1=O)C1CCS(=O)(=O)C1 (stereo not given) | active: 22.4 µM | 
C[C@H](N)c1nnc(SCc2ccc(Cl)cc2Cl)o1 | inactive | 
CC(C)Cn1c(O)c(N=NC(=O)c2cccc(S(=O)(=O)N3CCCCC3)c2)c2ccccc21 | inconclusive: 35.5 µM [inhibitor, single point] | 
CCOc1cc(S(=O)(=O)N(CC)CC)ccc1F | inconclusive: 0.562 µM [inhibitor, full curve, poor fit] | 
Cc1cc(C(=O)OCC(=O)NCc2ccco2)c(C)n1-c1ccc(F)cc1 | inconclusive: 10 µM [activator, partial curve, poor fit] | 
CC(C)CC1NC(=S)N(Cc2ccccc2)C1=O (stereo not given) | inconclusive: 35.5 µM [inhibitor, single point] | 
CCOc1ccc(Nc2ccnc3cc(Cl)ccc23)cc1 |  | inactive: 12.2% [at 9.22 µM]
O=C(CSc1nc2[nH]ncc2c(=O)n1-c1ccccc1)c1ccc2c(c1)OCCO2 | inactive | 
Cc1ccc2nc3ccc(N4CCCC4)nn3c(=O)c2c1 | inconclusive: 5.62 µM [activator, single point] | 
O=C(COc1nsnc1N1CCOCC1)N/N=C/c1ccccc1O | active: 14.1 µM | 
Cc1ccsc1C1NC(=O)c2c(sc3c2CCCC3)N1 (stereo not given) | active: 28.2 µM | 
O=C(Nc1nc(-c2cccs2)cs1)c1cccc(S(=O)(=O)N2CCCCCC2)c1 | inconclusive: 3.16 µM [inhibitor, partial curve, poor fit] | 

SMILES | Potency | activity change, negative = inhibition
Cc1ccc(-n2c(C)c([N+](=O)[O-])c3ccc(O)c(CN(C)C)c32)cc1 | active: 2.51 µM | 
COc1ccc2c(OC)cc(=O)n(C)c2c1 |  | inconclusive: 38.1% [activator]
O=C(O)CCN(Cc1ccccc1)S(=O)(=O)c1ccccc1Cl | inconclusive: 6.31 µM [activator, partial curve, poor fit] | 
Cc1ccc(NC(=O)Cc2cn3ccsc3n2)nc1 | inconclusive: 15.8 µM [inhibitor, single point] | 
Cc1nn(-c2ccccc2)c(Cl)c1C(=O)OC(C)C(=O)NC(=O)NC1CCCCC1 (stereo not given) | active: 11.2 µM | 
COc1ccccc1C(=O)NCC(=O)OC(C)C(=O)NC(=O)NC1CCCCC1 (stereo not given) | inactive | 
C(=N\N1CCN(Cc2ccccc2)CC1)/c1cccs1 | inconclusive: 0.891 µM [activator, single point] | 
CC(=O)c1cccc(NC(=O)Nc2cnn(Cc3ccc(F)cc3)c2)c1 | inconclusive: 2.51 µM [inhibitor, partial curve] | 
Cc1ccc(-c2csc(N3CCC(NS(=O)(=O)c4ccc5c(c4)OCCO5)CC3)n2)cc1 | active: 6.31 µM | 
COC(=O)/C=C/C(=O)Nc1cccnc1 | inconclusive: 35.5 µM [inhibitor, single point] | 
S=C(Nc1ccccc1)Nc1nc2ccccc2n1CCOc1ccccc1 | inconclusive: 22.4 µM [inhibitor, single point] | 
CCn1c(/C=N/NC(=O)c2ccc(OC)cc2)nc2ccccc21 | inconclusive: 7.08 µM [inhibitor, partial curve] | 
CN1CCN(Cc2nc3c(c(=O)n(C)c(=O)n3C)n2Cc2cccc3ccccc23)CC1 | inconclusive: 2 µM [inhibitor, partial curve] | 
COc1ccc(CC(=O)Nc2cccc(-c3nnc(-c4ccc(C)cc4)o3)c2)cc1OC | inactive | 
COc1cccc(N(C(=O)CCl)C(C(=O)NCCc2ccccc2)c2cccs2)c1 (stereo not given) | active: 22.4 µM | 
COc1cccc(F)c1C(C[N+](=O)[O-])c1c(N)n(C)c(=O)n(C)c1=O (stereo not given) |  | inactive: -22.1% [at 9.22 µM]
N=c1n(Cc2ccccc2)c2ccccc2n1CC(O)c1ccccc1 (stereo not given) | inconclusive: 3.55 µM [inhibitor, single point] | 
Cc1ccc(Sc2c(C=O)c3ccccc3n2C)cc1 | active: 10 µM | 
CC1CCc2nc(N)c(C#N)c(-c3ccncc3)c2C1 (stereo not given) | inactive | 
CC(C)(C)n1nc2c(c1NC(=O)c1ccc(Br)o1)CS(=O)C2 (stereo not given) | inconclusive: 1.58 µM [activator, partial curve] | 
CC(C)CCn1cnc2c(oc3nc4c(cc32)CCCC4)c1=O |  | inactive: -7.52% [at 9.22 µM]
COc1ccc(C2=NOC(C(=O)NCc3ccc(F)cc3)C2)cc1OC (stereo not given) | inconclusive: 0.708 µM [inhibitor, full curve, poor fit] | 
CCN1c2ccccc2NC2N=C(OC)C(c3ccccc3)C21 (stereo not given) | inconclusive: 2.51 µM [inhibitor, partial curve, poor fit] | 
COc1cc(C=O)ccc1OCCCOc1ccccc1[N+](=O)[O-] | inconclusive: 35.5 µM [activator, single point] | 

Compounds from the list above that contain a cyano group:
SMILES | Potency | activity change, negative = inhibition
N#CC1=C(S)N(c2ccccc2)C(c2ccc(-c3cccc(Cl)c3)o2)NC1=O (stereo not given) | inconclusive: 35.5 µM [activator, single point] | 
CC1CCc2nc(N)c(C#N)c(-c3ccncc3)c2C1 (stereo not given) | inactive | 

Later entries.

SMILES | Potency | activity change, negative = inhibition
O=C(c1csc2ccccc12)N1CCCCCC1 | inconclusive: 12.6 µM [inhibitor, single point] | 
O=C(O)c1ccc(COc2ccc3ccccc3c2/C=C2/NC(=O)N(c3ccccc3)C2=O)cc1 | inconclusive: 11.2 µM [inhibitor, single point] | 
CCOC(=O)c1cnc(-n2nc(C)cc2C)nc1NCc1ccccc1 | inconclusive: 3.55 µM [activator, single point] | 
COc1ccc(/C=C\c2nc(=O)c3ccccc3o2)cc1 | inactive | 
Cc1nc2cc(C(=O)N3CCc4ccccc43)ccc2n1-c1ccc(F)c(F)c1 | inconclusive: 35.5 µM [inhibitor, single point] | 
Cc1ccc(CNC(=O)c2ccc3c(=O)c(O)c(-c4ccc(C)cc4)[nH]c3c2)cc1 | inconclusive: 0.251 µM [inhibitor, full curve] | 
Cc1ccc(Sc2c(O)c3ccccc3n(C)c2=O)cc1 | inactive | 
O=C(Nc1ccccc1)c1ccc2nc(-c3ccco3)c(-c3ccco3)nc2c1 | inconclusive: 35.5 µM [activator, single point] | 
O=C(NC1CCCC1)c1cc2c(ccc3ccccc32)o1 | active: 11.2 µM | 
O=C(O)c1ccc(N/N=C/c2ccc(-c3cc(Cl)ccc3Cl)o2)cc1 |  | inactive: -0.453% [at 9.22 µM]
N#CCCn1nc(-c2ccc(Cl)cc2)cc1Nc1ccccc1NC(=O)C(F)(F)F | inconclusive: 5.62 µM [inhibitor, single point] | 
O=C(/C=C/c1ccc([N+](=O)[O-])cc1)NNC(=O)C1CC1 | inconclusive: 35.5 µM [inhibitor, single point] | 
O=C(Nc1nc(-c2cccc([N+](=O)[O-])c2)cs1)C(c1ccccc1)c1ccccc1 | active: 15.8 µM | 
O=C(c1ccc2c(c1)OCO2)C1CCCN(C(=O)c2cnn(Cc3ccccc3)c2)C1 (stereo not given) |  | inactive: 4.96% [at 9.22 µM]
COc1ccc(/C=C/C(O)=C2/C(=O)N(C)C3(C)CC2c2ccccc2O3)cc1 (stereo not given) | inconclusive: 35.5 µM [inhibitor, single point] | 
Cc1cc(C(=O)OCC(=O)Nc2ccc(F)c(F)c2F)c(C)o1 | inactive | 
O=C(c1ccc2c(=O)n(C3CCCC3)c(=S)[nH]c2c1)N1CCN(C2CCCCC2)CC1 | inconclusive: 31.6 µM [inhibitor, single point] | 
CCCc1[nH]n(-c2nc3ccccc3s2)c(=O)c1C=NCCN1CCOCC1 | inconclusive: 0.891 µM [activator, full curve, poor fit] | 
CCOc1cc(-c2nc(-c3ccccc3)c(-c3cc([N+](=O)[O-])ccc3C)[nH]2)ccc1O | inconclusive: 31.6 µM [inhibitor, single point] | 
Cc1ccccc1NC(=O)Nc1cc(S(N)(=O)=O)ccc1C | inconclusive: 3.16 µM [inhibitor, single point] | 
O=C(Cn1cnc2c(nnn2Cc2ccc(F)cc2)c1=O)NCc1ccc(F)cc1 | inactive | 
O=C(CNC(=O)c1ccccc1)OCC(=O)N1c2ccccc2Sc2ccccc21 | inactive | 

3 structures from above, ordered by heavy-atom count, smallest number first:
SMILES | Potency | activity change, negative = inhibition
O=C(NC1CCCC1)c1cc2c(ccc3ccccc32)o1 | active: 11.2 µM | 
O=C(Nc1ccccc1)c1ccc2nc(-c3ccco3)c(-c3ccco3)nc2c1 | inconclusive: 35.5 µM [activator, single point] | 
CCOc1cc(-c2nc(-c3ccccc3)c(-c3cc([N+](=O)[O-])ccc3C)[nH]2)ccc1O | inconclusive: 31.6 µM [inhibitor, single point] | 
